The assay deals with SUMO1 (construct not stated) (UniProt P63165). In words: affinity purification with mass spectrometry; DSP crosslinking, sequential IP of SUMO1 and PSME3, MALDI-TOF MS, MASCOT; positive when found in duplicated experiments.

These are yes or no findings as the source states them, for the method shown. Binding seen in cells or lysates may run through a third protein. A yes stands for co-enrichment or nearness to the bait. Other partners may have been found.

Regarding p53 (from UniProt P04637 1-393), the binding result is on record as “binds”. The result for BRD4 (from UniProt O60885 1-1362) reads “binds”.

B1: endogenous CP2c (protein, UniProt Q12800 1-502)
chain: MAWALKLPLADEVIESGLVQDFDASLSGIGQELGAGAYSMSDVLALPIFKQEESSLPPDNENKILPFQYVLCAATSPAVKLHDETLTYLNQGQSYEIRMLDNRKLGELPEINGKLVKSIFRVVFHDRRLQYTEHQQLEGWRWNRPGDRILDIDIPMSVGIIDPRANPTQLNTVEFLWDPAKRTSVFIQVHCISTEFTMRKHGGEKGVPFRVQIDTFKENENGEYTEHLHSASCQIKVFKPKGADRKQKTDREKMEKRTPHEKEKYQPSYETTILTECSPWPEITYVNNSPSPGFNSSHSSFSLGEGNGSPNHQPEPPPPVTDNLLPTTTPQEAQQWLHRNRFSTFTRLFTNFSGADLLKLTRDDVIQICGPADGIRLFNALKGRMVRPRLTIYVCQESLQLREQQQQQQQQQQKHEDGDSNGTFFVYHAIYLEELTAVELTEKIAQLFSISPCQISQIYKQGPTGIHVLISDEMIQNFQEEACFILDTMKAETNDSYHIILK
For B1, the binding entry is “binds”.

The values above are taken from PMC9882985 (Science Advances, 2023).
